Results taken from US20210277003A1, “OGA INHIBITOR COMPOUNDS” (Janssen Pharmaceutica NV, priority 2018, published 2021).

Chains of the proteins cited; added tags and fusions are not shown.
UniProt O60502, whole entry: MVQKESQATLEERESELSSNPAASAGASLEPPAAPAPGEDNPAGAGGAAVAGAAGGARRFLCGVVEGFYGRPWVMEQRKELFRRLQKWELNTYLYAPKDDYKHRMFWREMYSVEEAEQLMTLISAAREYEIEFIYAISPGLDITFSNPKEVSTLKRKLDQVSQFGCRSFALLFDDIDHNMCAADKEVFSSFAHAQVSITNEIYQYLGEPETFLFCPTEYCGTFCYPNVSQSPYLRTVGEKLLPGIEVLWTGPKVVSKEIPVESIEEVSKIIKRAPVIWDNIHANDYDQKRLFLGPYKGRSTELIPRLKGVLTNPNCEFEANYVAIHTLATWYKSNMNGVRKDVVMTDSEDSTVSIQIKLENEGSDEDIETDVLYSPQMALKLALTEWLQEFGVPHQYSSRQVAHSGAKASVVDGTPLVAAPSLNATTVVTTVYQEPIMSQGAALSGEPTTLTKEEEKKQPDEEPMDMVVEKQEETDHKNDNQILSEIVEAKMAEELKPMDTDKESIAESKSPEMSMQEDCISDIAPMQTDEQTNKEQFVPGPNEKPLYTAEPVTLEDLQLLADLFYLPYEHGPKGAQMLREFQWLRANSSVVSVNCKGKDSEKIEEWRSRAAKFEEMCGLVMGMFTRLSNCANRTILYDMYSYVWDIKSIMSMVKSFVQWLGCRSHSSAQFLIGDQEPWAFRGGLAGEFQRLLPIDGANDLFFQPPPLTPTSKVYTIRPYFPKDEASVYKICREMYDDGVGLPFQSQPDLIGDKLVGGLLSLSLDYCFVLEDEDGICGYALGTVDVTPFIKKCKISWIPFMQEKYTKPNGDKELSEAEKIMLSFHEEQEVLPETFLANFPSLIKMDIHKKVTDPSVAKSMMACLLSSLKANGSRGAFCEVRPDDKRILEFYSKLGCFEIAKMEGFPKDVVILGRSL

Target: recombinant human Meningioma Expressed Antigen 5 (MGEA5), also referred to as O-GlcNAcase (OGA) (Homo sapiens, UniProt O60502)
Assay: OGA biochemical assay: inhibition of hydrolysis of fluorescein mono-ß-D-N-Acetyl-Glucosamine (FM-GlcNAc), fluorescence readout
Conditions: FM-GlcNAc substrate
Excerpt: The assay is based on the inhibition of the hydrolysis of fluorescein mono-ß-D-N-Acetyl-Glucosamine (FM-GlcNAc) (Mariappa et al. 2015, Biochem J 470:255) by the recombinant human Meningioma Expressed Antigen 5 (MGEA5), also referred to as O-GlcNAcase (OGA). The hydrolysis FM-GlcNAc (Marker Gene technologies, cat #M1485) results in the formation of ß-D-N-glucosamineacetate and fluorescein. The fluorescence of the latter can be measured at excitation wavelength 485 nm and emission wavelength 538 nm. An increase in enzyme activity results in an increase in fluorescence signal. Full length OGA enzyme was purchased at OnGene (cat #TP322411). The enzyme was stored in 25 mM Tris.HCl, pH 7.3, 100 mM glycine, 10% glycerol at −20° C. Thiamet G and GlcNAcStatin were tested as reference compounds (Yuzwa et al. 2008 Nature Chemical Biology 4:483; Yuzwa et al. 2012 Nature Chemical Biology 8:393). The assay was performed in 200 mM Citrate/phosphate buffer supplemented with 0.005% Tween-20. 35.6 g Na2HPO4 2 H2O (Sigma, #C0759) were dissolved in 1 L water to obtain a 200 mM solution. […] Fluorescence was quantified in the Thermo Scientific Fluoroskan Ascent or the PerkinElmer EnVision with excitation wavelength 485 nm and emission wavelength 538 nm. […]

## Fc1cc(Cl)c(Nc2nccc3c2ccn3-c2cc[nH]n2)c(Cl)c1
  Enzymatic Emax (%): 95.09%
  Enzymatic hOGA; pIC50: 6.19

The match of structure and compound is tentative.
